Test results: patent publication US11234971B2, “Methods of treating cancer comprising administration of a glucocorticoid receptor modulator and a cancer chemotherapy agent” (Corcept Therapeutics Incorporated, priority 2018, dated 2022)
At least one read-out could not be matched to a standard name with certainty. For at least one compound, name, drawing or mass did not settle the structure.

Test system: OVCAR-5 human ovarian cancer cells
Test: OVCAR-5 cell growth (Cell Titer-Glo) with chemotherapy agents with or without dexamethasone and relacorilant
Format: cell-based
Settings: for Max effect (increase in maximal cell toxicity of the agent from dexamethasone-alone to relacorilant + dexamethasone): high doses of chemotherapeutic
Procedure: The initial cell density was chosen to be low enough to allow for several population doublings (typically 3 to 5) during the indicated incubation period. […] After 48 hours of incubation, serially diluted test agents in growth medium were added to each well. After 72 hours of culture, the plated cells and Cell Titer-Glo® (Promega G7571) reagents were brought to room temperature to equilibrate for 30 minutes. 200 μL of Cell Titer-Glo® reagent was then added to each well, the plate was shaken for two minutes, and then left to equilibrate for ten minutes. The Cell Titer-Glo® cell viability assay uses ATP levels to determine cell numbers. After this equilibration, luminescence was read on the Biotech Synergy II microplate reader. The percent control (% C) of cell growth for each test concentration was calculated relative to untreated wells. All tests were performed in quadruplicate. Individual assay plates were evaluated for appropriate signal and well-to-well variance in the control wells for quality control.

[1] = 100 nM dexamethasone, 300 nM relacorilant
[2] = glucocorticoid 100 nM dexamethasone, relacorilant in the presence of the glucocorticoid

Row | SMILES | Max effect (increase in maximal cell toxicity of the agent from dexamethasone-alone to relacorilant + dexamethasone) [1] | also measured
1 | CCN(CC)CCCC(C)Nc1ccnc2cc(Cl)ccc12 (stereo not shown) [Chloroquine] | + (consistent ~0-40% increase in toxicity at high doses of chemotherapeutic from the dexamethasone-alone to the relacorilant + dexamethasone treatments) | –
2 | COc1cccc2c1C(=O)c1c(O)c3c(c(O)c1C2=O)C[C@@](O)(C(=O)CO)C[C@@H]3O[C@H]1C[C@H](N)[C@H](O)[C@H](C)O1 [Doxorubicin] | + (consistent ~0-40% increase in toxicity at high doses of chemotherapeutic from the dexamethasone-alone to the relacorilant + dexamethasone treatments) | –
3 | C=C1C[C@@H]2CC[C@@]34C[C@H]5O[C@H]6[C@@H](O3)[C@H]3O[C@H](CC[C@@H]3O[C@H]6[C@H]5O4)CC(=O)C[C@@H]3[C@@H](OC)[C@@H](C[C@H](O)CN)O[C@H]3C[C@H]3O[C@@H](CC[C@@H]1O2)C[C@@H](C)C3=C [Eribulin] | ++ (consistent >40% increase in toxicity at high doses of chemotherapeutic from the dexamethasone-alone to the relacorilant + dexamethasone treatments) | –
4 | CC(C)(C)c1[nH]cnc1/C=c1\[nH]c(=O)/c(=C/c2ccccc2)[nH]c1=O [Plinabulin] | ++ (consistent >40% increase in toxicity at high doses of chemotherapeutic from the dexamethasone-alone to the relacorilant + dexamethasone treatments) | –
5 | CCC1=C[C@@H]2CN(C1)Cc1c([nH]c3ccccc13)[C@@](C(=O)OC)(c1cc3c(cc1OC)N(C)[C@H]1[C@@](O)(C(=O)OC)[C@H](OC(C)=O)[C@]4(CC)C=CCN5CC[C@]31[C@@H]54)C2 [Vinorelbine] | ++ (consistent >40% increase in toxicity at high doses of chemotherapeutic from the dexamethasone-alone to the relacorilant + dexamethasone treatments) | –
6 | C[C@@H]1C[C@H]2[C@@H]3CCC4=CC(=O)C=C[C@]4(C)[C@@]3(F)[C@@H](O)C[C@]2(C)[C@@]1(O)C(=O)CO [dexamethasone] | – | cell proliferation in the presence of pemetrexed (100 nM dexamethasone alone or 300 nM relacorilant alone, compared to DMSO vehicle): increased; cell numbers (luminosity) in the presence of bortezumib and palbociclib (bortezumib 500 μM, palbociclib 100 μM, 100 nM dexamethasone, 300 nM relacorilant): increased cell numbers as compared to those in vehicle; maximal toxicity at high chemotherapy concentrations (dexamethasone, relacorilant + dexamethasone): decreased the maximal toxicity; maximum effect of / sensitivity to gemcitabine [2]: reduced the maximum effect of gemcitabine; maximum effect of / sensitivity to paclitaxel [2]: reduced the maximum effect of paclitaxel
